# Results published in article PMC8084160.
# The chains behind the UniProt entries cited, without tags or fusion partners. Where a name states a change or a piece, a line headed by the entry shows the natural chain unless it says otherwise.
# UniProt P24268: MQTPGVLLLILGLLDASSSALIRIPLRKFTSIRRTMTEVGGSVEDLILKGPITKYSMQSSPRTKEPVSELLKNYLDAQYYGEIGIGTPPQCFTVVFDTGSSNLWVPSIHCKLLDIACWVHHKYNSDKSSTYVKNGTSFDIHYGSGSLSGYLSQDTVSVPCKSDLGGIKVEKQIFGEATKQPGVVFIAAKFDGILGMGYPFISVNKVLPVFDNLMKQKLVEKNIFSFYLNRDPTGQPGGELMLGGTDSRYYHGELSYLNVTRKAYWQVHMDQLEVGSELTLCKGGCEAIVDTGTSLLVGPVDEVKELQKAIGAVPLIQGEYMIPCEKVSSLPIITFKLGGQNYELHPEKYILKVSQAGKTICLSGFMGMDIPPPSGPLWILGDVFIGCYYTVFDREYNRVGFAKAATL
# Results are given in words; binding and its absence hold for the method and conditions named. In cells and extracts the contact can be indirect. Binding calls can cover weak binding; strength is not graded here.
# Target: T1, prosaposin (rat (endogenous in epididymal fluid of Sprague-Dawley rats)) (UniProt P10960)
# T1 sequence: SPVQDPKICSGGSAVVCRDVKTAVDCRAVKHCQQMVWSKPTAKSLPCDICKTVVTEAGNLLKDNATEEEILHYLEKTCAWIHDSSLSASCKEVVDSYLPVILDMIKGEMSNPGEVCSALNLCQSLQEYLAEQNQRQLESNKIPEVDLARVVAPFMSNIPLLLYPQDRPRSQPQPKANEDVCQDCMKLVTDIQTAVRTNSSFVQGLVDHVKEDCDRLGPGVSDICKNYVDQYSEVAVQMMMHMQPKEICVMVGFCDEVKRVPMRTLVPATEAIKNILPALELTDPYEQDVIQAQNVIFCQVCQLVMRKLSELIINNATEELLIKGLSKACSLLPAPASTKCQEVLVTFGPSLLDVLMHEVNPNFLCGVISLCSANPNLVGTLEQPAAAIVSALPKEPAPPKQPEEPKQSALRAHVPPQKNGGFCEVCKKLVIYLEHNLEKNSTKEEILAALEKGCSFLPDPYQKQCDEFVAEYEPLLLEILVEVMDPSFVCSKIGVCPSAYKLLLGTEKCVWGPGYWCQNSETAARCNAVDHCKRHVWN
# Assay: co-IP; anti-prosaposin antibody on protein A sepharose beads incubated 16 h at 4°C with 1 ml epididymal fluid (IS/caput, corpus, cauda) of control and castrated rats; washed with PBS; cathepsin D detected by immunoblot
substance,measurement,value
procathepsin D (from UniProt P24268) (enzyme),binding,binds
